Results on 1 molecule are retold here after paper PMC7714070, “The role of the cytoskeletal proteins MreB and FtsZ in multicellular cyanobacteria” (FEBS Open Bio, 2020).

No constants are given. Whether binding was seen depends on the method and setting. Some results given as binding are weak or reduced against the parent protein; the word gives no strength. Where a sequence is shown, tags or fusion partners need not be part of it.

The target in the assay is T1, MreB from Fischerella muscicola PCC 7414, BACTH fusion (Fischerella muscicola PCC 7414).
T1 sequence: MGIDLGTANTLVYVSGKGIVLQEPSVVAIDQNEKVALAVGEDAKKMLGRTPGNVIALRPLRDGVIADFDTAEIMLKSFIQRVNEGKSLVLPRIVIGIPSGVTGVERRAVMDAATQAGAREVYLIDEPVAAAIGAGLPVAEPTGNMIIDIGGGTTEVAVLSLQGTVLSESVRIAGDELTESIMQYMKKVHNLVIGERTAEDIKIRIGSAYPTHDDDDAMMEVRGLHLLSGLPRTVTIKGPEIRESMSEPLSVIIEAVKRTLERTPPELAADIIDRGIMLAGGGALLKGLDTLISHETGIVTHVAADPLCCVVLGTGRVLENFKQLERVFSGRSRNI
The assay can be described thus: two-hybrid; bacterial adenylate cyclase two-hybrid (BACTH) in E. coli, T25 and T18 fusions in all possible pairwise combinations, beta-galactosidase assay (Miller units per mg LacZ), three independent colonies.

B1: FtsZ from Fischerella muscicola PCC 7414, BACTH fusion (protein, UniProt A0A2N6JXP9 1-430)
chain: MTLDNNQGLTYKNSQSPGQSTFSLAVNSTNPFNHSGLSFGQNNDSKKIEREETRIGDIVPGRVANIKVIGVGGGGSNAVNRMIASDVSGVEFWSINTDAQALTLAAAPSRLQIGQKLTRGLGAGGNPAIGTKAAEESRDEIATALDGADLVFITAGMGGGTGTGAAPIVAEVAKEMGALTVGVVTRPFIFEGRRRISQAEQGIEGLKSRVDTLIIIPNNKLLEVIPEQTPMQEAFRYADDVLRQGVQGISDIITIPGLINVDFADVRAVMADAGSALMGIGIGSGKSRAREAAIAAISSPLLECSIEGARGVVFNITGGSDLTLHEVNAAAETIYEVVDPNANIIFGAVIDDRLQGEVRLTVIATGFTGEAPAAQQSNVTQGRVVQPPPQRRPMQQPPAPNPPTQTPEPKEKGSVLDIPDFLRKRTPPRN
On to B1, for which the binding entry is recorded as “binds”.
